Values from PubChem BioAssay AID602196 (INSERM, 2012)
Assay: 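Knock-downs that protect lung cancer cells from cisplatin or sensitise them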. Cell system: human A549 lung cancer cells. Reagent: siRNA pair against human genes. Time to read-out: 48 h transfection before cisplatin; time from cisplatin to read-out not stated. Treatment: cisplatin at a dose killing half of control-siRNA cells; exact dose and duration not given. Detection: 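Cisplatin cell death as a shift from the 50% death seen with control siRNA; siRNAs toxic or growth-blocking alone scored 0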. Direction: two-siRNA summed score (-2 to +2): higher = both siRNAs protect from cisplatin killing; -2 means both sensitise. Active means: 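siRNAs harmful alone (LDH or WST-1) get 0; others get +1 for less and -1 for more cisplatin killing; genes are active when the two siRNAs give the same sign, summing to ±2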. Calls: active = both siRNAs shift cisplatin killing the same way; inactive = no consistent shift, or siRNA harmful alone.
The deposit covers about 23,000 reagents; below is an unselected part. 455 of them (2%) count as active. 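Active includes both protection and sensitisation; some change values fall well beyond the stated -50 to +50 range.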 Not all columns of the deposit are shown. The record does not give: the amount of reagent.

LOC132203: two-siRNA summed score (-2 to +2) = 0; outcome = inactive
LOC441868: two-siRNA summed score (-2 to +2) = 0; outcome = inactive
ZNF219: two-siRNA summed score (-2 to +2) = 0; outcome = inactive
USP54: two-siRNA summed score (-2 to +2) = 0; outcome = inactive
PXDNL: two-siRNA summed score (-2 to +2) = 0; outcome = inactive
INPP1: two-siRNA summed score (-2 to +2) = 0; outcome = inactive
MTURN: two-siRNA summed score (-2 to +2) = 0; outcome = inactive
DCC: two-siRNA summed score (-2 to +2) = 0; outcome = inactive
COLEC11: two-siRNA summed score (-2 to +2) = 0; outcome = inactive
SYNE2: two-siRNA summed score (-2 to +2) = 0; outcome = inactive
CLUL1: two-siRNA summed score (-2 to +2) = 1; outcome = inactive
LOC442436: two-siRNA summed score (-2 to +2) = 1; outcome = inactive
HACD1: two-siRNA summed score (-2 to +2) = 0; outcome = inactive
DDX39B: two-siRNA summed score (-2 to +2) = 0; outcome = inactive
CSRP3: two-siRNA summed score (-2 to +2) = -1; outcome = inactive
CDHR2: two-siRNA summed score (-2 to +2) = -1; outcome = inactive
FAM133A: two-siRNA summed score (-2 to +2) = 0; outcome = inactive
LOC391779: two-siRNA summed score (-2 to +2) = 1; outcome = inactive
LOC138972: two-siRNA summed score (-2 to +2) = 0; outcome = inactive
TRPV4: two-siRNA summed score (-2 to +2) = 0; outcome = inactive
FAM32A: two-siRNA summed score (-2 to +2) = 0; outcome = inactive

Targets above whose target name starts with D or d (2):
DCC: two-siRNA summed score (-2 to +2) = 0; outcome = inactive
DDX39B: two-siRNA summed score (-2 to +2) = 0; outcome = inactive
